Results as given in the RNAGym collection of RNA variant scans (doi:10.1126/science.aae0568).
This sample is rich in variants without activity.

B1: tRNA (parent)
chain: GUUCCGUUGGCGUAAUGGUAACGCGUCUCCCUCCUAAGGAGAAGACUGCGGGUUCGAGUCCCGUACGGAACG

Variants of: B1
Assay: yeast fitness relative to wild type (ratio to wild type); higher = fitter; tRNA-Arg(CCU), competitive growth, 37 C, YPD
How it was run: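 For this measurement, the tRNA-Arg(CCU) gene was varied by chemical synthesis at a 3% per-site mutation rate across 69 sites, and each variant was placed at the native genomic locus in Saccharomyces cerevisiae. The pooled strains went through a 24-hour competition in YPD at 37°C in six parallel replicates, with amplicons from start and end populations read by 100-nucleotide paired-end sequencing. Darwinian fitness relative to wild type followed from the change in each genotype's frequency. Genotypes needed ≥ 100 starting reads, and estimates < 0.5 were set to 0.5.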

Yeast fitness, 0.568:
C46U C61A G67A

Yeast fitness, 0.558:
G44A C55G

Yeast fitness, 0.777:
U13C A20G C31U

Yeast fitness, 0.535:
U19A C24A C31G C62U G68C

Yeast fitness, 0.65:
C27G C29G C34U C55U C61G

Yeast fitness, 0.715:
U35A G44A

Yeast fitness, 0.633:
U2C C4A G18C G63A

Yeast fitness, 0.615:
U7A G10A G41U C49U

Yeast fitness, 0.552:
G18A A20U C62A A70C

Yeast fitness, 0.608:
A21U A37U C60G

Yeast fitness, 0.937:
G6A U13C

Yeast fitness, ≤ 0.5:
G9A G12A A36U G39A
C11A U16C G18C C61A
U8C U13A C29A C31G
U3A C5U G18C U54A A70G
C22U G52A C55A A69C
C11G C22U C27U U28A G52A C55U
G10A C29U C62U A70U
C4G C31G A37C G50A
C5G U26C C34G
G9C A40U A70U
G17C C31A A65U
C5G A36U C46G C62A A69C
G9A G10A C31G G52A A70G
C5U U7A C49U C62A A69G A70G
A15C G58A G67A
U2G A45U G67C
C24G G41C A65C
C24A C31U A42C C66A
C4G A21G C46A U54A A69U
A20C C34G A43C A45U
C24G C46G C61U A65C
A14C A40G A57C
C24A G48A U53G G63U
A14U C49A A65G
C24G A37G G52C A69U
U8A C33U G67A
U32G C33G C55U C66U
C27G G56C A65G
C4U C24U A36C C61G
U8C C11G C30U A37C C46U
U8A G18C G25C
C31U C55G A65G
A14C U28C C61A
C5G A14C A37G C62G A69U
U2C A21C C62G
U3A A21C C24G C60G
A14U G44C G58A
G25A A37C C46U A57U
C5U C22A U26C A36U A45U U47C C61U
C27U U54G C66U
U8C C55G C60U
C5A U35C G44A G48C C55G A65G C66U
C24U G38C A57C
C27U U28C G38A A69C A70G
U35C G48C U53A C61U
C5G C11G A14C U35G A45C A57C C62G
A21C G25C U26G C62A
A15G A40U A42C C49A C66A
A14C A21G G25A C33U C46A C55A
C4U U19C C34A G50C G56A
G6C G38C U59C
U28A U35G G63C C66G
G12A A14C G50C A69C
G18A G56A C62U A70U
U3C A14U C55U A57U
A14U C24G G41A G44A C61A G67A
C5G A20C A40U A45G C46U
G18C C49A U54A A57G
A15G C27G A42G G48A
G10C U13C A36G C49U
U7A G25A C30U A57C A70U
G6A C22U A37G C49A
U3G G6A A14G G38C G41C A57C C62A
C29A C33U C61U A69U
U3A C4A U54C

Yeast fitness, 0.635:
A14G A20C C46G

Yeast fitness, 0.754:
C4U G56A A70C

Yeast fitness, 0.78:
G10C C31U

Yeast fitness, 0.554:
C4U G17A U19G A21G A43G

Yeast fitness, 0.573:
C27U C55A A69C

Yeast fitness, 0.576:
A40U U54A

Yeast fitness, 0.537:
C5G C29U A43C
